Laboratory results from patent publication US5075336A, “Alkaline earth metal salts of oxa polyacid compounds” (Adir et Compagnie, priority 1990, dated 1991).
Entries after “also recorded” stand apart in the source; their conditions may differ. For at least one compound, name, drawing or mass did not settle the structure.

How the values were obtained:
[1] = tested on: forearms of rat foetuses (PTH-stimulated osseous resorption); assay: Osseous resorption in tissue culture: 45Ca salted out from PTH-stimulated foetal forearm bones; assay type: cell-based, rats; settings: in vitro
Protocol: (§1) The activity on osseous formation and the anti-resorbing activity of compounds potentially active as medicaments may be detected and measured in vitro in tissue culture.
18-day pregnant rats are injected with 150 μcuries of ^45 Ca subcutaneously.
On the 19th day the rats are sacrificed and the foetuses are removed, immersed in a bath of alcohol at 70° are then two baths of PBS and killed by cutting off the head. The two forearms are dissected, the skin, the tendons and the muscles are removed and the cartilaginous extremities are cut off. The forearms are cultured in 24-well culture boxes in the presence of 1.5 ml of MEM for 24 hours for equilibration. At the end of said 24 hours, the medium is replaced by 1.5 ml of BGJB supplemented with 10% of foetal calf serum. The resorption is stimulated in all of the samples by […] of PTH. The bones are cultured for two successive periods of 72 hours each and the culture media are removed to determine the amount of ^45 Ca salted out at the end of each of these two periods. At the end of the second period (7 days after the start of culture), the bones are immersed for 24 hours in 1.5 ml of 10% formic acid and the ^45 Ca salted out from the bones is also determined in a scintillation counter.
The results are expressed for each of the two culture periods by the treated/control ratio calculated in the following way: [formula] […]

[2] = tested on: Demi-calvarias of newly born mice; assay: Osseous formation in tissue culture: incorporation of tritiated proline (T/C ratio); assay type: cell-based; settings: in vitro, 10^-4 M
Protocol: as §1
Demi-calvarias of newly born mice (1-2 days) are cultured on gratings in BGJ medium containing tritiated proline. The explants are cultured for 48 h in the presence of the tested compound at 37° C. and at the end of the culture the bones are washed in trichloroacetic acid containing non-radioactive proline in order to remove the ^3 H-proline which has not been incorporated.
After washing and dissolving in sodium hydroxide solution, the incorporation of the labler in the bone and the amount of total proteins are counted. The effect of the product on the incorporation of proline in the bone in culture is thus evaluated.
Each treated demi-calvaria is compared with the untreated demi-calvaria which serves as control and the T/C ratio is calculated. [formula]
A stimulation of the osseous formation is reflected by a higher incorporation of tritiated proline in the treated demi-calvaria than in the control (T/C>1). An inhibition of the osseous formation is shown by a T/C ratio of <1.
The compounds were tested at concentrations of 10^-4, 10^-6, 10^-8, 10^-10 and 10^-12 M.
6 to 9 experiments were carried out per point.

## CCOC(OC(CO)C(=O)O)C(=O)O (stereo not drawn) [Example 1, Strontium 2-ethoxy-4-hydroxymethyl-3-oxa pentanedioate]
[1]; 5×10^-3 M
  Osseous resorption despite the stimulation by PTH: inhibits osseous resorption and brings it back to a level distinctly below the spontaneous resorption
[1]; listed as (A)
  Anti-resorbing activity: considerable anti-resorbing activity; also recorded: dose-dependent
[2]
  Stimulation of the osseous formation evaluated by incorporation of labeled proline (collagen synthesis): considerable and statistically significant stimulation
